Article PMC11172336, “Exploring Syndecan-4 and MLP and Their Interaction in Primary Cardiomyocytes and H9c2 Cells” (Cells, 2024)
These are yes or no findings as the source states them, for the method shown. Some binding calls cover weakened binding; strength is not graded here. Values belong to the binder of their own block, whether it stands above or below them.

Columns and labels:
[1] = target: MLP, endogenous in H9c2 cells (rat (endogenous in H9c2)) (UniProt P50463); experiment: immunoblotting under native conditions; total lysates of H9c2 cells with or without retinoic acid and isoprenaline, native sample buffer, not boiled, SDS-containing running buffer; blot for MLP
[2] = target: recombinant 6xHis-MLP-WT (human) (UniProt P50461); experiment: ELISA; wells coated with 10 µg of WT or mutated full-length 6xHis-MLP recombinant protein in PBS; biotinylated overlapping MLP-WT 30-mer peptides at 2–5 µM for two hours at 37 °C; signal of PBS-coated wells subtracted; both purified

- binding [1]: binds
B1: MLP, endogenous in H9c2 cells (protein, UniProt P50463 1-194)
chain: MPNWGGGAKCGACDKTVYHAEEIQCNGRSFHKTCFHCMACRKALDSTTVAAHESEIYCKVCYGRKYGPKGIGFGQGAGCLSTDTGEHLGLQFQQSPKPARAATTSNPSKFSAKFGESEKCPRCGKSVYAAEKVMGGGKPWHKTCFPCAICGKSLESTNVTDKDGELYCKVCYAKNFGPTGIGFGGLTHQVEKKE

- binding [2]: binds weakly
Binder: RSVTTSNPSKFTAKFGESEKCPRCGKSVYA (peptide, UniProt P50461 100-129, N-terminal biotin tag) [biotinylated MLP-WT peptide aa 100-129]

- binding [2]: binds weakly
Binder: ELYCKVCYAKNFGPTGIGFGGLTQQVEKKE (peptide, UniProt P50461 165-194, N-terminal biotin tag) [biotinylated MLP-WT peptide aa 165-194]
